Test results published in the supplement of paper PMC8497498.
± gives the standard deviation of the averaged measurements. The list shows a part of the results. The data scatter; read single values as rough.

Columns and labels:
Conditions in all cases: 10 µM
[1] = tested on: Plasmodium vivax liver stage (primary human hepatocyte culture); assay: hypnozoite quantity inhibition (% inhibition); higher = more active against hypnozoites
[2] = tested on: Plasmodium vivax liver stage (primary human hepatocyte culture); assay: schizont net growth area inhibition (% inhibition); higher = more active against liver schizonts
[3] = tested on: primary human hepatocytes; assay: hepatic nuclei reduction relative to DMSO (100 - % of negative control); higher = more toxic to hepatocytes
[4] = assay mode: Prophylactic (treated before or shortly after infection), fixed day 6 post-infection
[5] = assay mode: Radical Cure (treated from day 5 post-infection for 3 days), fixed day 8 post-infection

Row | Structure (SMILES) | hypnozoite quantity inhibition [1, 4] | hypnozoite quantity inhibition [1, 5] | schizont net growth area inhibition [2, 4] | schizont net growth area inhibition [2, 5] | hepatic nuclei reduction [3, 4] [%] | hepatic nuclei reduction [3, 5] [%]
1 | COc1cc(NC(C)CCCN)c2ncccc2c1 (configuration not stated) | 18 ± 1.4 | -9 ± 34 | 41.4 ± 15 | -9.9 ± 5 | 7 ± 4.2 | 4.5 ± 6.4
2 | CCN(CC)CCCNc1ccnc2cc3ccccc3cc12 | -8 | 42.7 | -219 | 17.3 | -3 | -2
3 | O=C(Nc1ccc2c(c1)B(O)OC2)c1ccccc1C(F)(F)F | 45 | -38 | 93.8 | -112 | 25 | -9
4 | CN(C)c1ccc(C(O)(c2ccc(N(C)C)cc2)c2ccc(N(C)C)cc2)cc1 | 70.1 | -6.2 | 95.6 | 57.8 | 61 | 10
5 | COc1ccc(N(CCc2cccc(C)n2)C(C)=O)cc1 | 7 | -20 | 6.1 | -88.6 | -3 | -8
6 | CCOC(=O)C1=C(c2ccccc2)N=c2sc(=Cc3cc(C)n(-c4ccc(F)cc4)c3C)c(=O)n2C1c1cccc(OC)c1OC (configuration not stated) | 20.9 | 10.1 | -67 | -115 | 4 | 4
7 | CNC(=O)c1nn(C)c2c1C(C)(C)Cc1cnc(Nc3ccc(N4CCN(C)CC4)cc3)nc1-2 | 31 | -12 | 102 | 45.6 | 26 | 18
8 | CCCOCc1cc(CN2CCN(c3cccc(Cl)c3)CC2)c(O)c2ncccc12 | -6.3 | 51 | -9.1 | 76.9 | 0 | -5
9 | O=C(Nc1cccc(Cl)c1)c1cnc(N2CCN(c3ccncc3)CC2)c(Cl)c1 | -35 | -20 | 77.4 | -28.9 | 8 | -4
10 | C[C@]1(O)C[C@@H](c2nc(-c3ccc4ccc(-c5ccccc5)nc4c3)c3c(N)nccn32)C1 | -2 | -36 | 19.3 | -6.7 | -11 | -9
11 | NC(=O)c1cc(-c2ccsc2)ccc1OCCOc1ccccc1 | 41 | -49 | 46.2 | -169 | -1 | -10
12 | CCCCCCc1cc2cc(-c3nc4ccccc4[nH]3)c(=Nc3ccccc3C)oc2cc1O | 24 | 7.4 | 22.7 | -62 | -1 | 0
13 | CCC(Sc1nc2ccccc2o1)C(=O)Nc1nccs1 (configuration not stated) | -58 | 1 | -37.3 | -106 | -5 | -2
14 | CCN(CC)CCn1c(=N)n(CC(O)c2ccc(Cl)c(Cl)c2)c2ccccc21 (configuration not stated) | -22.7 | 26.5 | 18.9 | 36.9 | -4 | -3
15 | COC(=O)Nc1nc2cc(C(=O)c3ccccc3)ccc2[nH]1 | -96 | -31 | 90.9 | -17.7 | -7 | -1
16 | Clc1cccc(C(c2ccc(CN3CCNCC3)cc2)n2ccnc2)c1 (configuration not stated) | 6 | 7 | -65.7 | -60.3 | -9 | 2
17 | COc1ccc(-c2cc(NC(=O)c3ccc(F)cc3Cl)ccc2OC)cc1 | -83 | -38 | 2.4 | -234 | -3 | 8
18 | CCN(CC)c1cc(C)c2cc(NC(=O)c3cccc(OC)c3)ccc2n1 | 0 | 26.5 | 16.5 | 12.2 | 4 | -10
19 | CCN(CC)CCNc1ncnc2c1[nH]c1ccc(Br)cc12 | 10.1 | 45.5 | 2.1 | -76.1 | -1 | -8
20 | Cc1cc(C)n2nc(C(=O)Nc3cc(C(F)(F)F)ccc3N3CCOCC3)nc2n1 | -38 | -20 | 41.8 | -2.6 | -5 | 8
21 | CN1CCN(c2cc(-c3ccc(F)cc3)nc(-c3ccncc3)n2)CC1 | 25 | 16 | 15.3 | 21.4 | -5 | -8
22 | CCC(=O)Nc1ccccc1C(=O)Nc1ccccn1 | 20 | 3 | -24.7 | -138 | -9 | 9
23 | O=C(Nc1ccc(N2CCNCC2)nc1)c1oc(-c2ccccc2)nc1C(F)(F)F | -72 | -46 | -15.1 | -31.8 | -6 | -10
24 | COc1ccc2nc3cc(Cl)ccc3c(Nc3cc(CN4CCCC4)c(O)c(CN4CCCC4)c3)c2n1 | -79 | 39 | 92.2 | 51.4 | 1 | 2
25 | O=C(Nc1nc(-c2ccccn2)cs1)C1CC1c1ccccc1F (configuration not stated) | 31 | 22 | 49.5 | 7.6 | 0 | -8
26 | Cc1ccc(OCCCCCCNCCO)c(C)c1 | 10.6 | 29 | 83.3 | 49.8 | -11 | 21
27 | Cc1cccc(-c2nc(Nc3ccncn3)c3sccc3n2)n1 | 15 | -25 | 90.2 | -73.1 | 1 | -4

Given with tabs: entries from further up
Row	Structure (SMILES)	hypnozoite quantity inhibition [1, 4]	hypnozoite quantity inhibition [1, 5]	schizont net growth area inhibition [2, 4]	schizont net growth area inhibition [2, 5]	hepatic nuclei reduction [3, 4] [%]	hepatic nuclei reduction [3, 5] [%]
12	CCCCCCc1cc2cc(-c3nc4ccccc4[nH]3)c(=Nc3ccccc3C)oc2cc1O	24	7.4	22.7	-62	-1	0
13	CCC(Sc1nc2ccccc2o1)C(=O)Nc1nccs1 (configuration not stated)	-58	1	-37.3	-106	-5	-2
